## Assay results

Data taken from PubChem BioAssay AID504749, deposited by NCATS (2011).

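A panel of P. falciparum strains inside erythrocytes is exposed to compounds for three days, then a DNA-binding dye reports the amount of parasite DNA. Each compound was titrated across a series from about 0.000037 to 29 µM. The number is the fitted AC50, the concentration giving a half-maximal change in signal; a lower value means higher potency, whether the curve shows a decrease or an increase. Calls follow the curve class and fit quality: every row here is inconclusive, covering signal-raising curves and weak, poorly fitted, partial or highest-dose-only inhibition curves.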

Values are in µM. Every entry below has the call inconclusive. These entries are mostly ones the record files as inconclusive; other results of the assay are not listed here. Potencies fitted to partial, single-point or poorly fitting curves are rough. The first word of each remark tells which way the curve ran; it can be opposite to the aim of the assay.

{"compound": "CC(Cc1ccccc1)NCc1ccccc1Cl", "stereo": "stereo not given", "setting": "CP203", "potency (µM)": "19.01", "remark": "inhibitor, single point"}
{"compound": "CC(Cc1ccccc1)NCc1ccccc1Cl", "stereo": "stereo not given", "setting": "CP247", "potency (µM)": "8.912", "remark": "inhibitor, single point"}
{"compound": "CC(Cc1ccccc1)NCc1ccccc1Cl", "stereo": "stereo not given", "setting": "CP335", "potency (µM)": "16.94", "remark": "inhibitor, single point"}
{"compound": "CC(Cc1ccccc1)NCc1ccccc1Cl", "stereo": "stereo not given", "setting": "DIV30", "potency (µM)": "6.012", "remark": "inhibitor, partial curve, poor fit"}
{"compound": "CC(Cc1ccccc1)NCc1ccccc1Cl", "stereo": "stereo not given", "setting": "CP217", "potency (µM)": "8.912", "remark": "inhibitor, single point"}
{"compound": "CC(Cc1ccccc1)NCc1ccccc1Cl", "stereo": "stereo not given", "setting": "CP185", "potency (µM)": "11.22", "remark": "inhibitor, single point"}
{"compound": "CC(Cc1ccccc1)NCc1ccccc1Cl", "stereo": "stereo not given", "setting": "CP238", "potency (µM)": "11.22", "remark": "inhibitor, single point"}
{"compound": "CC(Cc1ccccc1)NCc1ccccc1Cl", "stereo": "stereo not given", "setting": "CP268", "potency (µM)": "8.492", "remark": "inhibitor, partial curve, poor fit"}
{"compound": "CC(Cc1ccccc1)NCc1ccccc1Cl", "stereo": "stereo not given", "setting": "PC26", "potency (µM)": "10.69", "remark": "inhibitor, single point"}
{"compound": "CC(Cc1ccccc1)NCc1ccccc1Cl", "stereo": "stereo not given", "setting": "CP291", "potency (µM)": "19.01", "remark": "inhibitor, single point"}
{"compound": "CC(Cc1ccccc1)NCc1ccccc1Cl", "stereo": "stereo not given", "setting": "CP325", "potency (µM)": "19.01", "remark": "inhibitor, partial curve, poor fit"}
{"compound": "CC(Cc1ccccc1)NCc1ccccc1Cl", "stereo": "stereo not given", "setting": "PAD", "potency (µM)": "10", "remark": "inhibitor, single point"}
{"compound": "CC(Cc1ccccc1)NCc1ccccc1Cl", "stereo": "stereo not given", "setting": "P93_24", "potency (µM)": "5.012", "remark": "inhibitor, partial curve"}
{"compound": "CC(Cc1ccccc1)NCc1ccccc1Cl", "stereo": "stereo not given", "setting": "DIV14", "potency (µM)": "7.569", "remark": "inhibitor, partial curve"}
{"compound": "CC(Cc1ccccc1)NCc1ccccc1Cl", "stereo": "stereo not given", "setting": "CP237", "potency (µM)": "7.943", "remark": "inhibitor, partial curve"}
{"compound": "CC(Cc1ccccc1)NCc1ccccc1Cl", "stereo": "stereo not given", "setting": "P94_40", "potency (µM)": "10", "remark": "inhibitor, partial curve"}
{"compound": "CO/N=C(\\C(=O)N[C@@H]1C(=O)N2C(C(=O)[O-])=C(C[n+]3cccc4c3CCC4)CS[C@H]12)c1csc(N)n1", "setting": "CP297", "potency (µM)": "0.0239", "remark": "inhibitor, full curve, poor fit"}
{"compound": "CO/N=C(\\C(=O)N[C@@H]1C(=O)N2C(C(=O)[O-])=C(C[n+]3cccc4c3CCC4)CS[C@H]12)c1csc(N)n1", "setting": "TAB113", "potency (µM)": "3.981", "remark": "inhibitor, single point"}
{"compound": "CO/N=C(\\C(=O)N[C@@H]1C(=O)N2C(C(=O)[O-])=C(C[n+]3cccc4c3CCC4)CS[C@H]12)c1csc(N)n1", "setting": "CP268", "potency (µM)": "0.0013", "remark": "activator"}
{"compound": "CO/N=C(\\C(=O)N[C@@H]1C(=O)N2C(C(=O)[O-])=C(C[n+]3cccc4c3CCC4)CS[C@H]12)c1csc(N)n1", "setting": "CP260", "potency (µM)": "11.22", "remark": "inhibitor, single point"}
{"compound": "CN(CCCN1c2ccccc2CCc2ccccc21)CC(=O)c1ccc(Cl)cc1", "setting": "CP256", "potency (µM)": "4.467", "remark": "inhibitor, partial curve"}
{"compound": "CN(CCCN1c2ccccc2CCc2ccccc21)CC(=O)c1ccc(Cl)cc1", "setting": "JCK", "potency (µM)": "12.59", "remark": "inhibitor, partial curve"}
{"compound": "CN(CCCN1c2ccccc2CCc2ccccc21)CC(=O)c1ccc(Cl)cc1", "setting": "DFO2036", "potency (µM)": "10", "remark": "inhibitor, single point"}

For reference, 2 entries once more:

For CC(Cc1ccccc1)NCc1ccccc1Cl (stereo not given) [DIV30] the result was potency 6.012 µM (inhibitor, partial curve, poor fit).
For CC(Cc1ccccc1)NCc1ccccc1Cl (stereo not given) [P93_24] the result was potency 5.012 µM (inhibitor, partial curve).